Data taken from ChEMBL document CHEMBL3988442, “University of Dundee, Small-Polar-MMV Screening Library” (2021).

Mtb cholesterol medium: 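Whole-cell growth test on Mycobacterium tuberculosis, read after 4 days in a medium based on cholesterol and the lipid DPPC; the read-out is not stated. Tested at 50 µM. Higher reads as more growth inhibition (inferred: compounds with an IC50 in retests scored well above the rest). Size under these conditions: about 69,000 compounds, about 370 of them at 50% or above in at least one test.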
Mtb glucose medium: 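Growth of Mycobacterium tuberculosis over 3 days (7H9 medium with glucose and tyloxapol); the read-out is not stated. Compounds at 50 µM. The record gives no direction; compounds that gave an IC50 in retests scored well above the rest, so higher reads as more growth inhibition. About 69,000 compounds were tested under these conditions; 1.1% (about 760) showed 50% or more at least once.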

The filed quantity is “Percent Effect” (%).
How 0% and 100% were set is not recorded. Most values in the screen are low, and negative values occur.
The compounds are a random part of those screened.
Two or more numbers in one place are separate tests of the same structure; such repeats can differ widely.

| structure | Mtb cholesterol medium | Mtb glucose medium |
|---|---|---|
| `CC(C(=O)O)n1nc(C(F)(F)F)c(Cl)c1C1CC1` (stereo not drawn) | 7.824% | 27.44% |
| `COC(C(=O)NC1CCN(S(C)(=O)=O)CC1)c1ccccc1` (stereo not drawn) | -31.18% | -29.38% |
| `CNC(=O)Cc1ccc(-n2ccnc2-c2ccc(C(=O)O)s2)cc1` | -14.06% | 6.927% |
| `CS(=O)(=O)N1CCN(C(=O)c2cc(-c3ccc(Br)s3)n[nH]2)CC1` | 2.894% | 9.491% & 25.3% |
| `O=C(C1CC=CC1)N1CCC2(CCC(=O)N2Cc2cccc(F)c2)CC1` | -3.405% | -4.357% & -19.48% |
| `CC(C)N(C)S(=O)(=O)N(C)Cc1ccc2c(c1)OCCO2` | 9.769% | 39.7% |
| `O=C(c1sccc1-n1cnnn1)N1CCCCC1` | -6.907% | -4.293% |
| `Cc1cc(Oc2ccc(NC(=O)C3CC3)cc2)cc(C2CCNCC2)n1.Cl` | 10.31% & -0.4188% | 5.526% |
| `O=C(O)c1cc2c(nc1O)CC(c1cccc(Cl)c1)CC2=O` (stereo not drawn) | -11.81% | -9.582% |
| `Cc1cccnc1N1CC2(CCN(Cc3cnn(C)c3)C2)C1.O=C(O)C(F)(F)F.O=C(O)C(F)(F)F` | 3.477% | 16.19% |
| `Cc1nn(C)c2nc(N3CCC(C(O)c4ccccn4)CC3)sc12` (stereo not drawn) | 8.606% & 6.072% | 15.29% |
| `O=C(O)C(F)(F)F.O=C(O)C(F)(F)F.[H][C@@]12CCN(Cc3ccccn3)[C@]1([H])CC[C@H](COC)O2` | -12.98% & -18.89% | -37.17% |
| `CCOCC1CN(Cc2ccsc2)Cc2cnn(C)c21` (stereo not drawn) | -9.641% | -18.96% |
| `CCCn1cc(S(=O)(=O)N(C)Cc2nonc2C)c(C)n1` | -2.087% | -1.593% |
| `NC(=O)COc1cccc(C(=O)NCc2ccc(Cl)s2)c1` | -23.65% | 0.9031% & 5.385% |
| `COCCC(=O)N1CCC(Nc2ncc(Br)cn2)CC1` | 6.806% | 8.3% |
| `O=C(O)C(F)(F)F.O=C(O)C(F)(F)F.O=C(O)C(F)(F)F.[H][C@@]12CN(Cc3cccnc3)C[C@]1([H])OCCN2c1ccc(C)nn1` | -27.78% | -1.983% |
| `O=C(O)C(F)(F)F.[H][C@@]12CN(Cc3ccoc3)C[C@]1([H])C(=O)N(Cc1ccc(OC)cc1)C2` | 17.74% | -15.78% |
| `O=C(c1cccnc1O)N1CCC2(CCCO2)CC1` | 11.09% | -1.779% & -3.503% |
| `CC(CNC(=O)c1c[nH]nn1)Oc1cccc(Br)c1` (stereo not drawn) | 12.34% & 4.715% | -0.994% |
| `C=C(C)CN1CCC(C(=O)c2cc(F)ccc2F)CC1` | 3.827% | 6.273% & -6.521% |
| `CN(C(=O)c1cccc(C(=O)NS(C)(=O)=O)c1)c1ccccc1` | -15.25% | -7.406% |
| `CC(NC(=O)NCc1ccccn1)c1cccs1` (stereo not drawn) | 0.7562% | 12.27% |
| `NCc1ccnc(Oc2ccc(F)cc2)c1` | 22.79% | 9.119% |
| `O=C(CCn1cncn1)NCC(c1ccco1)N1CCCC1` (stereo not drawn) | 16.32% | -7.196% |
| `NC(=O)c1ccc(N2CCCCC2)c(NC(=O)c2cncc(Br)c2)c1` | -26.38% | 7.528% |
| `Fc1ccc(CN2CCCN(Cc3cscn3)CC2)cc1` | -7.839% | 18.07% |
| `Cc1nc(C)c(C(=O)NCC(c2ccccc2Cl)N2CCOCC2)s1` (stereo not drawn) | -27.54% | -23.06% & -7.439% |
| `CCn1nc(C)c2ccn(CC(=O)NCCN3CCCCC3)c(=O)c21` | 7.397% | 12.1% |
| `CCNC(=O)c1cnc(Sc2nccn2C)c(Cl)c1` | 30.75% | 21.89% |
| `CCn1cnnc1Cc1nc2c([nH]1)CC(c1ccc(Cl)cc1)CNC2=O` (stereo not drawn) | -25.4% | -51.08% |
| `[H][C@@]12CC[C@H](Oc3cccc(F)c3)[C@]1([H])CN(C(=O)c1ncccc1C)C2` | -0.3747% | 19.23% |
| `CC(C)CC(Cc1cccc(Br)c1)C(=O)O` (stereo not drawn) | -19.86% | -20.21% & -6.536% |
| `Cn1c(CN2CCOCC2)cc(=O)c(O)c1CN1CCCCC1` | 5.081% | 21.24% |
| `Cc1nnc(NC(=O)CN2CCCC(Cn3cncn3)C2)s1` (stereo not drawn) | 2.232% | -0.5007% |
| `CNC(=O)c1nnn(-c2ccccc2F)c1-c1ccccn1` | -5.654% | -21.32% & 7.305% |
| `Cc1ncsc1CN1CCOC(C)(C(=O)N2CCOCC2)C1` (stereo not drawn) | 8.18% | 10.29% |
| `CC(NC(=O)CSCC#N)c1ccc(Cl)cc1` (stereo not drawn) | -8.177% | -6.223% |
| `COCCCNC(=O)Nc1cccc2c1CCN(S(C)(=O)=O)C2` | -8.415% & -27.85% | -16.33% |
| `CN(Cc1noc2c1CCCC2)C(=O)C1CCOc2ccccc2C1` (stereo not drawn) | 3.417% | 9.489% & 1.88% |
| `O=C(Nc1ccnn1C1CCCC1)c1ccc(NC2CC2)nc1` | -26.56% | -15.98% |
| `COc1ccc(CCC(=O)N(C)Cc2c(C)nn(C)c2C)cc1` | 11.66% | 15.37% |
| `CC(C)CN(Cc1ccsc1)C(=O)CCCn1cncn1` | -17.2% | 8.257% |
| `NC(=O)Cn1ccnc1C1CCCN(CCSc2ccccc2)C1` (stereo not drawn) | 10.86% | -6.007% & 2.567% |
| `COc1ccc(C(=O)N2CCOC3(CNCCOC3)C2)c(OC)n1` (stereo not drawn) | 5.246% & -16.3% | -9.572% |
| `CC(CNC(=O)N1CCN(c2ncccn2)CC1)Cc1cccs1` (stereo not drawn) | -10.04% | 5.522% |

Once more, the final 6:

structure	Mtb cholesterol medium	Mtb glucose medium
O=C(Nc1ccnn1C1CCCC1)c1ccc(NC2CC2)nc1	-26.56%	-15.98%
COc1ccc(CCC(=O)N(C)Cc2c(C)nn(C)c2C)cc1	11.66%	15.37%
CC(C)CN(Cc1ccsc1)C(=O)CCCn1cncn1	-17.2%	8.257%
NC(=O)Cn1ccnc1C1CCCN(CCSc2ccccc2)C1 (stereo not drawn)	10.86%	-6.007% & 2.567%
COc1ccc(C(=O)N2CCOC3(CNCCOC3)C2)c(OC)n1 (stereo not drawn)	5.246% & -16.3%	-9.572%
CC(CNC(=O)N1CCN(c2ncccn2)CC1)Cc1cccs1 (stereo not drawn)	-10.04%	5.522%